Experimental data: article doi:10.1101/2021.11.15.468682

Key:
[1] = molecular target: T1, Drosophila melanogaster Polo-like kinase 4, wild type (Plk4-WT-GFP and Plk4-WT-myc) (D. melanogaster) (UniProt O97143); test: co-IP
T1 sequence: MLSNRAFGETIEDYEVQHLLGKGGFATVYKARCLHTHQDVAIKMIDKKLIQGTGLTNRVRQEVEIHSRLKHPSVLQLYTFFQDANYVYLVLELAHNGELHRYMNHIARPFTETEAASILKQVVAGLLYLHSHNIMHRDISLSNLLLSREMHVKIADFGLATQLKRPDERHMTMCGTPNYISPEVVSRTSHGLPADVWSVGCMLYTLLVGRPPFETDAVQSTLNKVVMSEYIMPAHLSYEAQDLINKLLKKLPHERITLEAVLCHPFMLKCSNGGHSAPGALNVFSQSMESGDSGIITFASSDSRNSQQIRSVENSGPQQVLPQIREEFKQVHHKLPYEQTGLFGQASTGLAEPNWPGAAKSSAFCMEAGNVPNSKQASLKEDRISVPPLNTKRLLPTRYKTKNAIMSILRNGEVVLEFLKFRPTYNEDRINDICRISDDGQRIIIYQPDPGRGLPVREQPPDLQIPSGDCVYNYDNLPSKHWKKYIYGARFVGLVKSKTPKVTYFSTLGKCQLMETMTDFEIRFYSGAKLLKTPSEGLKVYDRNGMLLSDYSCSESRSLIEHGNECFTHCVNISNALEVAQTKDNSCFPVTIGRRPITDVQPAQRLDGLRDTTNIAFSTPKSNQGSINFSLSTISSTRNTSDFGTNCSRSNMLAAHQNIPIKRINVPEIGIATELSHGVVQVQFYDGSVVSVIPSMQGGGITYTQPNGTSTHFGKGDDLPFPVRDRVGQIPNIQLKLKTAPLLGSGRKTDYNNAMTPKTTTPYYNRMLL

[2] = molecular target: T2, Plk4 Dimer Mutant 2 (DM2; V590D/I592T) (Plk4-DM2-myc and Plk4-DM2-GFP) (D. melanogaster) (UniProt O97143); test: co-IP
T2 sequence: T1 sequence with V590D, I592T

binding [1]	binding [2]	Substance
binds	–	Asl-A mutant lacking the dimerization domain CC3 (Drosophila) (domain or fragment)
binds	–	Asl-A, the N-terminal third of Drosophila Asterless (Asl-A-V5; also GFP-tagged Asl-A) (domain or fragment)
–	binds	Cep135 (centriole protein), endogenous (Drosophila (endogenous in S2 cells))
binds	binds	Slimb (F-box protein), endogenous (Drosophila (endogenous in S2 cells))

Where a chain is given by its changes, count along the chain named. Results are given in words; binding and its absence hold for the method and conditions named. In cells and extracts the contact can be indirect. Binding can be weak; no strength is given. Tags and fused reporters may be left off the sequences shown.
